In PubChem BioAssay AID493014 (National Center for Advancing Translational Sciences (NCATS), 2011):
The other results are listed elsewhere or left out. These are further read-outs of the screen, such as a control signal, another cell line or another target. No call is given for them. Most of these compounds were active or inconclusive in the main read-out, so they are no random draw. Words in brackets tell the shape of the fitted curve; partial curves, single points and poor fits give uncertain potencies.

Assay: qHTS Assay to Find Inhibitors of Chronic Active B-Cell Receptor Signaling
Settings: ABC-DLBCL IkBa-CBG/CBR reporter, luminescence ratio (green luciferase fused to IkBa over red control in TMD8 lymphoma cells), 4 h
Method in brief: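 TMD8 human ABC-DLBCL cells with doxycycline-inducible IκBα–green luciferase fusion and unfused red luciferase, in 0.5% FBS medium; compounds up to 46 uM, 4 h at 37C. Green/red luminescence ratio, filter-overlap corrected, fitted to concentration-response curves.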

[1] = measured here: CBR red luminescence, cell number
[2] = measured here: IkBa-CBG green luminescence

Compound	AC50 [1]	AC50 [2]
Cc1cc(Cl)ccc1NC(=O)CSc1n[nH]c(N)n1	29.1 µM [rising, single point]	
COc1ccccc1CN1CCNC(=O)C1CC(=O)NCC1CCOCC1 (stereo not drawn)	3.98 µM [rising, partial curve, poor fit]	
CCC(C)C(=O)Nc1cc([N+](=O)[O-])ccc1Cl (stereo not drawn)	18.4 µM [rising, single point]	
O=C(NCc1ccco1)c1ccc(Cn2c(=O)c3ccccc3n(Cc3cccc(Cl)c3)c2=O)cc1	7.31 µM [rising, partial curve, poor fit]	
CCC1(C)Cc2c(sc3nc(SC)[nH]c(=S)c23)CO1 (stereo not drawn)	6.31 µM [rising, single point]	
CCn1c(C)c(CCC(=O)O)c(=O)n2nc(-c3ccccc3OC)cc12	13 µM [rising, partial curve, poor fit]	
O=C(CCCN1C(=O)C(c2ccccc2)Oc2cccnc21)Nc1cccc(F)c1 (stereo not drawn)	35.5 µM [falling, single point]	
COc1ccccc1N1CCN(C(=O)CN(c2ccccc2OC)S(=O)(=O)c2ccccc2)CC1	2.06 µM [falling, full curve]	
O=C1CSC(=S)N1/N=C/c1cccc(C(F)(F)F)c1	14.1 µM [rising, partial curve, poor fit]	
CN(Cc1cn[nH]c1-c1ccc(-c2ccccc2)cc1)CC1CCOCC1	35.5 µM [rising, single point]	
CCCCN1C(=O)C(=O)NC[C@@H]1C(C)CC (stereo partly drawn)	3.55 µM [falling, partial curve, poor fit]	
CCCCc1ccc(/C=C2\C(=O)c3ccccc3C(O)=C2C(=O)OCC)cc1	0.58 µM [falling, full curve, poor fit]	29.1 µM [falling, single point]
O=C(Nc1cc(S(=O)(=O)Nc2ccccc2Cl)ccc1O)c1ccc(F)cc1F	0.116 µM [falling, full curve, poor fit]	
Cc1cccc(C(=O)NNC(=O)c2c(O)c3ccccc3n(C)c2=O)c1	3.55 µM [falling, partial curve, poor fit]	
O=C(Nc1ccc(F)cc1)N1CCC(c2nc3c(nnn3Cc3ccccc3Cl)c(=O)[nH]2)CC1	35.5 µM [falling, single point]	
CC(C)N(C(C)C)S(=O)(=O)c1ccc(NN)nc1	0.224 µM [rising, full curve, poor fit]	
Cc1nn(-c2ccccc2)c(C)c1/C=C/C(=O)OC(C)C(=O)Nc1ncc(Cl)cc1Cl (stereo not drawn)	0.092 µM [rising, full curve, poor fit]	
CS(=O)(=O)Nc1cccc(C2=NN(C(=O)c3cccc(F)c3)C(c3cccs3)C2)c1 (stereo not drawn)	35.5 µM [falling, single point]	
Cc1cc(C)nc(SCc2ccc(C(=O)O)o2)n1	2.31 µM [falling, full curve, poor fit]	
O=C(Nc1ccc2c(c1)OCO2)c1cc(-c2ccc(O)cc2)on1	0.891 µM [falling, full curve]	
COc1cc(C(c2c(C)[nH][nH]c2=O)c2c(C)[nH][nH]c2=O)cc(Br)c1OC	11.2 µM [falling, partial curve, poor fit]	

Compound	AC50 [1]	AC50 [2]
CN(Cc1ccccc1)C(=O)COC(=O)c1ccc(Cl)c(N)c1	29.1 µM [falling, single point]	
Cc1ccc(S(=O)(=O)NC2CC(=O)N(c3ccc4c(c3)OCCO4)C2)cc1 (stereo not drawn)	29.1 µM [rising, partial curve, poor fit]	
NC(=O)CSc1nnc(-c2ccc(S(=O)(=O)N3CCOCC3)cc2)n1Cc1ccccc1	29.1 µM [falling, partial curve, poor fit]	
COC(=O)c1c(NC(=O)CN2CCN(c3ccccc3Cl)CC2)sc(C)c1C	1.64 µM [falling, partial curve, poor fit]	
C=C(C)Cn1c(CCCNC(=O)C(C)(C)C)nc2ccccc21	32.6 µM [falling, single point]	
CCC(=O)c1ccc(OCC(O)CN2C(=O)NC(C)(C)C2=O)cc1 (stereo not drawn)	9.2 µM [rising, partial curve, poor fit]	
COCC(=O)N1CCC(Oc2ccc(C(=O)N3CCN(C)C[C@@H]3C(C)C)cc2)CC1	0.112 µM [falling, full curve, poor fit]	
O=C(Nc1ccc(OCc2ccccc2)cc1)c1ccccc1	0.112 µM [rising, full curve, poor fit]	
CCn1cnc2c1c(=O)n(CC(=O)Nc1ccc(C(N)=O)cc1)c(=O)n2Cc1ccccc1	3.16 µM [rising, partial curve]	
O=C(CCS(=O)(=O)c1ccccc1)Nc1ccc2c(c1)C(=O)NC2=O	10 µM [rising, partial curve]	
CCOC(=O)c1c(NC(=S)Nc2ccc(OCC)cc2)sc2c1CCN(C)C2	12.6 µM [rising, single point]	
CCn1c(=O)c(C(=O)NNC(=O)c2ccccc2F)c(O)c2ccccc21	0.794 µM [falling, full curve, poor fit]	
NC(=O)c1sc2nc3c(c(-c4ccco4)c2c1N)CCCC3	10 µM [falling, partial curve, poor fit]	6.31 µM [rising, partial curve, poor fit]
COc1ccc(C(O)C(CC(=O)NCCCOC(C)C)C(=O)NCCCOC(C)C)cc1OC (stereo not drawn)	0.164 µM [rising, full curve, poor fit]	
CCn1nc(NC(=O)c2cccnc2)c2cc3ccccc3nc21	5.17 µM [falling, partial curve]	
O=C(NCc1ccccc1CN1CCCC1)c1ccc(OCc2cscn2)cc1	5.8 µM [rising, full curve, poor fit]	
CCc1noc(C)c1C(=O)Nc1nc2c(C)cc(C)cc2s1	16.4 µM [falling, partial curve, poor fit]	
CCC(=O)N1N=C(c2ccccc2)CC1c1ccccc1 (stereo not drawn)	35.5 µM [rising, single point]	
COc1cc(/C=N/NC(N)=O)ccc1OC(=O)c1cccs1	25.1 µM [rising, single point]	
CCC1CCCCN1Cc1ccc(CNS(=O)(=O)c2ccc3c(c2)oc(=O)n3C)o1 (stereo not drawn)	35.5 µM [falling, single point]	
O=S(=O)(c1cccs1)N1CCN(c2ccc(O)cc2)CC1	0.0891 µM [rising, full curve, poor fit]	

Ordered by SMILES length (rising): some entries from above
Compound	AC50 [1]	AC50 [2]
O=C1CSC(=S)N1/N=C/c1cccc(C(F)(F)F)c1	14.1 µM [rising, partial curve, poor fit]	
NC(=O)c1sc2nc3c(c(-c4ccco4)c2c1N)CCCC3	10 µM [falling, partial curve, poor fit]	6.31 µM [rising, partial curve, poor fit]
CS(=O)(=O)Nc1cccc(C2=NN(C(=O)c3cccc(F)c3)C(c3cccs3)C2)c1 (stereo not drawn)	35.5 µM [falling, single point]	

(next part)

Compound	AC50 [1]	AC50 [2]
CC(C)(C)OC(=O)C[C@@H]1C/C=C\C[C@@H](CC(=O)N[C@H](CO)Cc2ccccc2)C(=O)N2CCC[C@@H]2COC1=O	29.1 µM [rising, partial curve, poor fit]	
C/C(=N\NS(=O)(=O)c1ccc([N+](=O)[O-])cc1)c1ccc(NC(=O)c2ccco2)cc1	35.5 µM [falling, single point]	
COc1ccc(Cl)cc1NC(=O)CSc1nnc(C2CC2)n1N	8.2 µM [falling, partial curve, poor fit]	
COc1ccc(C2CC(c3cccs3)=NN2c2ccc(C=O)cc2)cc1 (stereo not drawn)	11.6 µM [rising, partial curve]	
c1ccc(-c2ccccc2-n2cnnn2)cc1	10 µM [rising, partial curve]	
O=C(Cn1nc([N+](=O)[O-])nc1Br)NC1CCCCC1	20 µM [falling, partial curve, poor fit]	
O=C(O)CC/C(=N\Nc1ccc(Cl)cc1)c1cccs1	35.5 µM [falling, single point]	
Cc1cc2nc(-c3ccc(SCC(=O)N4CCN(C(=O)c5ccco5)CC4)nc3)[nH]c2cc1C	32.6 µM [falling, single point]	
COC(=O)c1cc(NC(=O)c2cccs2)ccc1N1CCOCC1	15.8 µM [falling, partial curve, poor fit]	
CC(C)C[C@@]12C(=O)N(c3ccc(Br)cc3)C(=O)N1[C@H](c1ccc(Br)cc1)[C@@H]1C(=O)N(C(C)(C)C)C(=O)[C@@H]12	7.08 µM [falling, partial curve, poor fit]	
COc1cccc(NC(=S)N2CCCC2c2ccc(OC)c(OC)c2)c1 (stereo not drawn)	3.16 µM [rising, partial curve, poor fit]	
C/C(CC(=O)Nc1ccccn1)=N\NC(=O)c1ccccc1O	1.78 µM [falling, full curve]	
CCCCC(=O)Nc1cccc(NC(=O)c2ccc3c(c2)OCO3)c1	0.82 µM [falling, full curve]	
COc1ccc(NC(=O)/C(Cl)=C(/Cl)S(=O)(=O)Cc2ccccc2)cn1	5.8 µM [falling, full curve, poor fit]	
CC1(C)C2CCC(C2)C1C/C=N/NC(N)=S (stereo not drawn)		35.5 µM [falling, single point]
COc1ccc(CN2CCC(CO)(Cc3cccc(C(F)(F)F)c3)CC2)cc1Cn1cccn1	11.2 µM [falling, partial curve, poor fit]	
Cc1cc(C)nc(NS(=O)(=O)c2ccc(NC(=O)CSc3nc(-c4ccccc4)c(C#N)c(=O)[nH]3)cc2)n1	20 µM [falling, partial curve]	
COc1ccc(/C=N/N=C2/NC(=O)C(CC(=O)O)S2)cc1OCc1ccccc1Cl (stereo not drawn)	14.6 µM [rising, partial curve]	
O=C(c1ccccc1)N1N=C(c2ccccc2)CC1c1ccccc1 (stereo not drawn)	35.5 µM [falling, single point]	
